Record: PubChem BioAssay AID602196 (INSERM, 2012)
In all, the deposit lists about 23,000 reagents; below is a part drawn at random. 455 of all reagents (2%) count as active. 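Active includes both protection and sensitisation; some change values fall well beyond the stated -50 to +50 range.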 Unmarked entries are inactive. Further read-outs or replicates are left out here. No sequences are given here. Not stated in the record: the amount of reagent.

Assay: 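Modifiers of cisplatin sensitivity in A549 cells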
System: human A549 lung cancer cells
Reagents: siRNA pair against human genes
Timing: 48 h transfection before cisplatin; time from cisplatin to read-out not stated
Challenge: cisplatin at a dose killing half of control-siRNA cells; exact dose and duration not given
Read-out: 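Shift in cisplatin death relative to control siRNA, from -50 (all cells die) to +50 (no cells die); siRNAs harmful on their own scored 0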
Reading the numbers: two-siRNA summed score (-2 to +2): higher = both siRNAs protect from cisplatin killing; -2 means both sensitise; mean protection from cisplatin (shift in death): higher = protection from cisplatin killing
Hit rule: 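siRNAs harmful alone (LDH or WST-1) get 0; others get +1 for less and -1 for more cisplatin killing; genes are active when the two siRNAs give the same sign, summing to ±2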
Meaning of the calls: active = both siRNAs shift cisplatin killing the same way; inactive = no consistent shift, or siRNA harmful alone

The opening 2 entries, ahead of the listing:
| Target gene | two-siRNA summed score (-2 to +2) | mean protection from cisplatin (shift in death) (%) |
| --- | --- | --- |
| ZNF847P | 0 | 3.5 |
| DCXR | 0 | 3 |

The listing, from the first entry:
| Target gene | two-siRNA summed score (-2 to +2) | mean protection from cisplatin (shift in death) (%) |
| --- | --- | --- |
| ZNF847P | 0 | 3.5 |
| DCXR | 0 | 3 |
| MTA3 | 0 | 2.2 |
| PACSIN1 | 2 (active) | 18.1 |
| SQOR | 0 | 7.1 |
| MAGEA9 | 0 | 8.3 |
| LOC440254 | 1 | 7.8 |
| TRIM6 | 1 | 6.6 |
| LDC1P | 0 | 0.8 |
| LOC389668 | 0 | 9.4 |
| LMBR1 | 0 | 9 |
| LOC390625 | 1 | 16.3 |
| LRRK2 | 0 | 6.6 |
| IRAK1 | 0 | -5.2 |
| PLAA | 1 | 6.6 |
| LOC388388 | 0 | 5.9 |
| CIMAP1C | 1 | 13.6 |
| LOC442159 | -1 | -7.7 |
| NQO1 | -1 | -10.2 |
| SUZ12 | 0 | 9.5 |
| RSPRY1 | 0 | 10 |
| FLJ40288 | 1 | 22.1 |
| KLRA1P | 0 | 5.7 |
